Test results taken from paper PMC9735520.
These are yes or no findings as the source states them, for the method shown. Binding seen in cells or lysates may run through a third protein. Some entries that bind do so weakly or less than the wild type.

Chains of the proteins cited; added tags and fusions are not shown.
UniProt P17174: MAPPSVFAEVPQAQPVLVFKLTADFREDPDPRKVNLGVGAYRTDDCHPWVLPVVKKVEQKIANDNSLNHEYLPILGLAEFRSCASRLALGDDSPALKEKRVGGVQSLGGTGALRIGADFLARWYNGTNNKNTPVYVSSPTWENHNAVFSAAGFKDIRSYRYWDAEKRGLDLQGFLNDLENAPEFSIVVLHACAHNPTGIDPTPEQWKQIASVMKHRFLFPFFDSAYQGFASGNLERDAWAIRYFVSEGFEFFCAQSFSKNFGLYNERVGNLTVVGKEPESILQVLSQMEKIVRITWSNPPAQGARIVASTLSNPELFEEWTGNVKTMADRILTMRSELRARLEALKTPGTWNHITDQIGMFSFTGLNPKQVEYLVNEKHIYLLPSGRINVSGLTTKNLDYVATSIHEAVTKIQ
UniProt P41597: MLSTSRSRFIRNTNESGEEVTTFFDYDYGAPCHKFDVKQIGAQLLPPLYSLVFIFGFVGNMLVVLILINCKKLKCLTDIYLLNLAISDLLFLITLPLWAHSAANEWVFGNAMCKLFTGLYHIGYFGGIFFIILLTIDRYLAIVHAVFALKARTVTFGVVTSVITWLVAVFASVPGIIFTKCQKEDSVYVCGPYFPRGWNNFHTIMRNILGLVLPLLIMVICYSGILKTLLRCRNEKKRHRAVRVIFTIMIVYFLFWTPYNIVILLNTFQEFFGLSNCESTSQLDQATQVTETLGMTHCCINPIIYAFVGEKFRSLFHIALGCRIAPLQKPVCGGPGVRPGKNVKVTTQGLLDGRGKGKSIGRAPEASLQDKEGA

Molecular target: aspartate aminotransferase 1 (GOT1) (UniProt P17174)
Assay: co-IP; cells lysed in RIPA buffer 48 h after transfection; supernatant incubated with corresponding antibodies at 4 °C overnight, Protein A agarose beads, washed with ice-cold PBS, blot

“C-C motif chemokine receptor-2 (CCR2) (from UniProt P41597 1-374)” was tested, and the binding was “binds”.
